Experimental data from article PMC4749390.
Results are given in words; binding and its absence hold for the method and conditions named.

Protein sequences, listed by entry. Tags and fused reporters are not part of them.
UniProt O00482: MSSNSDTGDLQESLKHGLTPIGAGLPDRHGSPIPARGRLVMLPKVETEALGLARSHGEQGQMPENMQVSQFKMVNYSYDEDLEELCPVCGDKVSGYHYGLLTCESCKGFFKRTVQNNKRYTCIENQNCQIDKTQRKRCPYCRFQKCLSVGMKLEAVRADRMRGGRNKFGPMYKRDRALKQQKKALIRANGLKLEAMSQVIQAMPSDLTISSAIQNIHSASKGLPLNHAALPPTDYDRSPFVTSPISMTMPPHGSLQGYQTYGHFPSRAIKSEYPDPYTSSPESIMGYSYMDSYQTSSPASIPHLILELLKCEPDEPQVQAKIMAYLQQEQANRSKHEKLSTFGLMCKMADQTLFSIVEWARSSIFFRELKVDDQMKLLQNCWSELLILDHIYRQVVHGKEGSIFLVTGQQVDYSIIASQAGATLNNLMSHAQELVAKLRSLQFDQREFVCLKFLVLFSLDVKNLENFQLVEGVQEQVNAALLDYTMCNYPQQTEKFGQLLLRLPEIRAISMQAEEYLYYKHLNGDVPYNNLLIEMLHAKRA

Biological target: recombinant full-length human LRH-1 (FL-hLRH-1) (human) (UniProt O00482)
Test: native gel or EMSA; hLRH-1 bound to a 24 bp duplex of the Inhibin-A promoter, after size exclusion chromatography on Superdex 200 (16/60); both purified

- binding: no binding
Substance: recombinant full-length human LRH-1 (FL-hLRH-1) (from UniProt O00482 1-541)
